Assay results reported in US10166271B2, “Methods for promoting hair growth” (THE REGENTS OF THE UNIVERSITY OF CALIFORNIA, priority 2006, dated 2019).
Where “and” joins values, the source holds several entries; their conditions need not be identical. Identical values can stand only once.

Tested on: CRF-OE mice
Assay: Adrenal gland, abdominal fat and body weight at sacrifice in female CRF-OE mice after sc injection
Format: in vivo
Details: for AbdFat (abdominal fat weight), Adjusted/20 g Wt / Adren (adrenal glands weight), Adjusted/20 g Wt / Wt. @ euth (weight on the day of euthanasia): female CRF-OE mice, individual mice and Ave., listed as AB

In the case of “(cyclo 30-33)[DPhe12, Nle21,38, Cml27,40, Glu30, Lys33]Ac-h/rCRF9-41 [Astressin B]”, the “Effect on adrenal gland and abdominal fat weight compared with saline” value (CRF-OE mice, at the times of observation) is reported as “changed neither adrenal gland nor abdominal fat weight compared with saline”, the “AbdFat (abdominal fat weight), Adjusted/20 g Wt” value (7 days post last injection) is reported as 1.5 g (2×) and 1.4 g (2×) and 1.9 g and 1.2 g and the “Adren (adrenal glands weight), Adjusted/20 g Wt” value (7 days post last injection) is reported as 6.6 mg (2×) and 5.4 mg and 5.7 mg and 4.7 mg and 5.8 mg. The “Wt. @ euth (weight on the day of euthanasia)” value (7 days post last injection) was 35.6 gm (3×) and 35.5 gm and 40.3 gm and 36.52 gm, the “AbdFat (abdominal fat weight), Adjusted/20 g Wt” value (14 days post last injection) was 1.3 g (3×) and 1.2 g (3×) and the “Adren (adrenal glands weight), Adjusted/20 g Wt” value (14 days post last injection) was 6.3 mg and 5.7 mg and 6.8 mg (2×) and 7.4 mg and 6.6 mg. The “Wt. @ euth (weight on the day of euthanasia)” value (14 days post last injection) was 37.6 gm and 38 gm and 36.1 gm (2×) and 33.3 gm and 36.22 gm.
